These are yes or no findings as the source states them, for the method shown. Some binding calls cover weakened binding; strength is not graded here.
Biological target: RuvC protein from T. thermophilus (Tt-RuvC), unliganded (apo) crystal form (T. thermophilus) (UniProt Q5SJC4)
Assay: crystal structure; apo Tt-RuvC, crystals from 0.1 M citric acid (pH 3.5) and 1.5 M NaCl; SAD, 1.35 Å; asymmetric unit holds a RuvC dimer; both purified

binding: binds
B1: RuvC protein from T. thermophilus (Tt-RuvC), unliganded (apo) crystal form (enzyme)
chain: MVVAGIDPGITHLGLGVVAVEGKGALKARLLHGEVVKTSPQEPAKERVGRIHARVLEVLHRFRPEAVAVEEQFFYRQNELAYKVGWALGAVLVAAFEAGVPVYAYGPMQVKQALAGHGHAAKEEVALMVRGILGLKEAPRPSHLADALAIALTHAFYARMGTAKPL
modifications: selenomethionine-substituted protein (SAD data)
notes: RuvC Holliday junction resolvase, Thermus thermophilus; No PDB id is printed for the apo structure; also called apo Tt-RuvC; RuvC resolvase; source: E. coli, purified (nickel column, tag cleavage, Mono-S column)
